System: HT-29 cells
Experiment: Mitochondrial transmembrane potential
Assay type: cell-based
Conditions: Homo sapiens, HT-29, read-out: MTP (mitochondrial transmembrane potential) IC50 (positive control), HT-29 cells, positive control

SMILES: CN[C@@H]1C[C@H]2O[C@@](C)([C@@H]1OC)n1c3ccccc3c3c4c(c5c6ccccc6n2c5c31)C(=O)NC4 [staurosporine]
- IC50: 2 nM
